Measured values from PubChem BioAssay (NCATS).
The other results are listed elsewhere or left out. These are further read-outs of the screen, such as a control signal, another cell line or another target. No call is given for them. Compounds called inactive in the main read-out are mostly missing here. Words in brackets tell the shape of the fitted curve; partial curves, single points and poor fits give uncertain potencies.

experiment: qHTS Assay for Inhibitors of PDE-IV (AID 607); settings: HEK293 ACTOne CNG channel cells, membrane potential fluorescence; measured here: parental cell counter-screen
Summary of the method: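 The readout is membrane depolarisation from a cAMP-sensing CNG channel, detected with a potential dye at ex 535/em 590. Cells were HEK293-derived (endogenous PDE-IV) at 1000 cells/well, titrated up to 22.9 uM final.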

Compound | AC50
CCCC/C=C/C(NC(=O)c1ccc(C(=O)OC)cc1)c1ccccc1 (centres undefined) | 10 µM [rising, single point]
O=C(c1ccco1)N1CCC2(CC1)CN(Cc1cc(C(F)(F)F)cc(C(F)(F)F)c1)C2 | 10 µM [rising, single point]
CCC(=O)N[C@@H]1Cc2ccccc2[C@@H](c2ccccc2)C1 | 10 µM [rising, partial curve]
CN(C)Cc1ccccc1-c1cc(NCc2ccccc2)ncn1 | 20 µM [rising, single point]
COC(=O)[C@@]1(Cc2ccccc2)[C@H]2c3cc(C(=O)N(C)C)n(Cc4cc(F)c(F)c(F)c4)c3C[C@H]2CN1C(=O)c1ccccc1 | 2.51 µM [rising, single point]
COCCn1c(C(=O)N2CCCC2)cc2c1C[C@H]1CN(C(=O)c3ccccc3)[C@@](Cc3ccccc3)(C(=O)OC)[C@@H]21 | 10 µM [rising, single point]
O=C(NCC1CC1)[C@@H]1C[C@H]1[C@@H](NP(=O)(c1ccccc1)c1ccccc1)c1ccccc1 | 0.398 µM [rising, single point]
CN(Cc1ccco1)c1ncnc2ccc(-c3ccc4c(c3)OCO4)cc12 | 3.16 µM [rising, partial curve]
C[C@H](NCCC(c1ccccc1)c1ccccc1)c1ccccc1 | 7.94 µM [rising, single point]
Cc1cccc(CNc2nc(-c3cccc(NS(C)(=O)=O)c3)nc3ccccc23)c1 | 12.6 µM [rising, single point]
CCCCC#Cc1ccccc1CC(=O)Nc1ccccc1 | 10 µM [rising, single point]
COC(=O)[C@@]1(Cc2ccc(OC)cc2)[C@H]2c3cc(C(=O)N(C)C)n(Cc4ccsc4Br)c3C[C@H]2CN1C(=O)c1ccccc1 | 12.6 µM [rising, partial curve]
CS(=O)(=O)N1CCC2(CCCN(C(=O)Nc3cccc(C#N)c3)C2)CC1 | 0.501 µM [rising, single point]
CCC/C=C(\CCC)C(NC(=O)c1ccco1)c1ccc(C(=O)OC)cc1 (centres undefined) | 10 µM [rising, single point]
CN(C)Cc1ccccc1-c1nc(N(C)Cc2ccco2)c2ccccc2n1 | 12.6 µM [rising, single point]
CC(=O)[C@@H]1CC[C@@H]2[C@@H]3CCC4=CC(=O)CC[C@@]4(C)[C@H]3CC[C@]21C | 6.31 µM [rising, partial curve, poor fit]
C[C@@H](CN(C)C)CN1c2ccccc2CCc2ccccc21 | 5.01 µM [rising, partial curve, poor fit]
COC(=O)[C@@]1(Cc2ccccc2)[C@H]2c3cc(C(=O)N(C)C)n(Cc4ccccc4)c3C[C@H]2CN1C(=O)c1ccccc1 | 2.51 µM [rising, partial curve]
COC(=O)[C@@]1(Cc2ccc(OC)cc2)[C@H]2c3cc(C(=O)N(C)C)n(Cc4ccc(C)o4)c3C[C@H]2CN1C(=O)c1ccccc1 | 10 µM [rising, partial curve]
c1ccc(CN2CCC3(CCc4ccccc43)CC2)cc1 | 12.6 µM [rising, partial curve]
COCC(=O)N1CCC2(CCN(Cc3ccncc3)CC2)CC1 | 0.631 µM [rising, single point]
COc1ccc(C(=O)N2CCC[C@@]3(CCN(Cc4ccc(C#N)cc4)C3)C2)cc1 | 12.6 µM [rising, single point]
CC(=O)ON(C(C)=O)S(=O)(=O)c1ccc(Cl)cc1 | 15.8 µM [rising, single point]
O=C(O)CC[P+](c1ccccc1)(c1ccccc1)c1ccccc1 | 2.51 µM [rising, single point]
FC(F)(F)c1cc(CO[C@@H]2CCCN[C@H]2c2ccccc2)cc(C(F)(F)F)c1 | 15.8 µM [rising, partial curve]
CC(C)(C)C(=O)NC(c1ccc(Cl)cc1)[C@]1(C)C[C@H]1C1CCCCC1 (some centres undefined) | 2 µM [rising, single point]
CCCC/C=C/C(NC(=O)c1ccc(C(F)(F)F)cc1)c1ccccc1 (centres undefined) | 10 µM [rising, single point]
CCC/C=C(\CCC)C(NS(=O)(=O)c1ccccc1)c1ccc(C(F)(F)F)cc1 (centres undefined) | 7.94 µM [rising, partial curve]
COC(=O)[C@@]1(Cc2ccc(OC)cc2)[C@H]2c3cc(C(=O)N4CCCC4)n(Cc4ccc(C(F)(F)F)nc4)c3C[C@H]2CN1C(=O)c1ccccc1 | 12.6 µM [rising, single point]

Look-ups from the results shown:
Entry of c1ccc(CN2CCC3(CCc4ccccc43)CC2)cc1 under AC50: 12.6 µM [rising, partial curve]
Entry of COc1ccc(C(=O)N2CCC[C@@]3(CCN(Cc4ccc(C#N)cc4)C3)C2)cc1 under AC50: 12.6 µM [rising, single point]
